PubChem BioAssay AID1159584 | Peter MacCallum Cancer Centre | 2016
Aim: 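Genes whose loss is lethal only together with E-cadherin loss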 (primary screen). Cells: human MCF10A breast epithelial cells, parental and CDH1-null. Reagents: siRNA against human genes. Measured: 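Cell viability by CellTiter-Glo ATP luminescence, each line scaled to the mean of mock wells across plates, then CDH1-null over parental ratio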. Direction: CDH1-null / parental viability ratio: higher = CDH1-null cells survive relatively better than parental; CDH1-null viability vs mock: higher = more viable CDH1-null cells.
This is one part, drawn at random, of about 18,000 reagents. Further read-outs or replicates are left out here. Reagent sequences are not shown. Not given: the amount of reagent, the time to read-out.

Gene,CDH1-null / parental viability ratio,CDH1-null viability vs mock (fraction of mock)
LINC02145 (long independently transcribed non-coding RNA 2145),0.89,0.73
FKBP14 (FKBP prolyl isomerase 14),1.24,1.17
SLC2A3,1.09,1.1
ZNF530 (zinc finger protein 530),1.23,0.87
USP47 (ubiquitin specific peptidase 47),1.04,0.83
SUMO3 (small ubiquitin like modifier 3),1.32,0.9
PLSCR1 (phospholipid scramblase 1),0.93,0.76
OR8G1 (olfactory receptor family 8 subfamily G member 1),1.07,0.8
XYLB (xylulokinase),1.04,0.96
OR51F1 (olfactory receptor family 51 subfamily F member 1),1.5,0.87
TAF8 (TATA-box binding protein associated factor 8),0.93,0.97
ATP5MC3 (ATP synthase membrane subunit c locus 3),0.9,0.81
RABGAP1 (RAB GTPase activating protein 1),1.3,0.87
TEX13A (testis expressed 13A),1,0.46
LBX1 (ladybird homeobox 1),1,0.9
KLHL17 (kelch like family member 17),0.98,0.92
CLGN (calmegin),0.87,0.85
ANKRD42 (ankyrin repeat domain 42),1.07,0.8
DAAM1 (dishevelled associated activator of morphogenesis 1),0.69,0.55
ZNF697 (zinc finger protein 697),0.95,0.63
AMPH (amphiphysin),1.02,0.96
TRPV5,1.22,0.73
DNAJC28 (DnaJ heat shock protein family (Hsp40) member C28),0.96,1
HCN4,1.12,0.84
OR4S1 (olfactory receptor family 4 subfamily S member 1),1.23,0.9
MAPKAP1 (MAPK associated protein 1),0.98,0.91
MICB (MHC class I polypeptide-related sequence B),0.87,0.86
ADAMTSL2 (ADAMTS like 2),1.08,0.82
RGS19 (regulator of G protein signaling 19),1.01,1.1
OLR1 (oxidized low density lipoprotein receptor 1),1.03,0.8
CNRIP1 (cannabinoid receptor interacting protein 1),1.09,1
GPR119 (G protein-coupled receptor 119),1.47,0.88
PDE8A (phosphodiesterase 8A),1.09,0.6
KDM3B (lysine demethylase 3B),1.28,0.82
EIPR1 (EARP complex and GARP complex interacting protein 1),1.02,0.94
OR2F1 (olfactory receptor family 2 subfamily F member 1),1.13,0.34
MED12L (mediator complex subunit 12L),0.99,0.9
KRTAP12-3 (keratin associated protein 12-3),1.04,1.06
WASL (WASP like actin nucleation promoting factor),1.04,1.12
MAF (MAF bZIP transcription factor),0.96,0.96
BPIFB3 (BPI fold containing family B member 3),0.96,0.77
USP2 (ubiquitin specific peptidase 2),1.35,0.62
GRAMD1C (GRAM domain containing 1C),0.9,0.52
TBC1D9B (TBC1 domain family member 9B),1.01,0.78
VWA7 (von Willebrand factor A domain containing 7),0.84,0.76
KCNH5 (potassium voltage-gated channel subfamily H member 5),1.11,0.9
GLB1L (galactosidase beta 1 like),1.04,0.7
NAB1 (NGFI-A binding protein 1),1.35,0.42
IP6K2 (inositol hexakisphosphate kinase 2),0.78,0.68
RRS1 (regulator of ribosome synthesis 1),0.76,0.22
GALNT3 (polypeptide N-acetylgalactosaminyltransferase 3),0.97,0.7
APCDD1L (APC down-regulated 1 like),1.42,0.34
JAK3 (Janus kinase 3),1.02,0.84
COPZ2 (coat protein complex I subunit zeta 2),1.53,0.55
CUL4A (cullin 4A),1.11,1
SSX4B (SSX family member 4B),1.04,0.85
PROM2 (prominin 2),1.07,0.9
COL10A1 (collagen type X alpha 1 chain),1.32,0.45
CD300A (CD300a molecule),0.91,0.8
CASKIN2 (CASK interacting protein 2),1.1,0.97
RPA1 (replication protein A1),0.96,0.23
MOV10 (Mov10 RNA helicase),1.12,0.94
FAM174B (family with sequence similarity 174 member B),0.76,0.68
OR5P2 (olfactory receptor family 5 subfamily P member 2),1.19,0.86
ANKRD50 (ankyrin repeat domain 50),0.83,0.53
"DSTN (destrin, actin depolymerizing factor)",1.15,0.76
SEPTIN4 (septin 4),1.03,0.94
FBXO8 (F-box protein 8),0.93,0.91
ATP6V1F (ATPase H+ transporting V1 subunit F),1.12,0.96
BICDL1 (BICD family like cargo adaptor 1),1.15,0.55
"REV3L (REV3 like, DNA directed polymerase zeta catalytic subunit)",0.98,1.02
YPEL1 (yippee like 1),1.08,0.78
DLX2 (distal-less homeobox 2),0.84,0.72
C4A (complement C4A (Chido/Rodgers blood group)),1.31,0.51
MSRB2 (methionine sulfoxide reductase B2),1.21,0.92
GADD45A (growth arrest and DNA damage inducible alpha),1.03,0.78
DNAJC12 (DnaJ heat shock protein family (Hsp40) member C12),1.08,0.56
EPB42 (erythrocyte membrane protein band 4.2),0.79,0.57
AMTN (amelotin),0.85,0.39
GTF2H2 (general transcription factor IIH subunit 2),0.74,0.92
ZNF740 (zinc finger protein 740),0.98,0.82
FABP7 (fatty acid binding protein 7),1.15,1.17
AP2A2 (adaptor related protein complex 2 subunit alpha 2),0.81,0.26
ENAH (ENAH actin regulator),1.13,0.78
MAP2 (microtubule associated protein 2),1.16,1.17
CXXC1 (CXXC finger protein 1),0.87,0.48
IHO1 (interactor of HORMAD1 1),1.02,0.92
